Data: patent US20230302150A1, “ANTIBODY-TLR AGONIST CONJUGATES, METHODS AND USES THEREOF” (Ambrx, Inc., priority 2020, published 2023)
The match of structure and compound is tentative.

Protein sequences, listed by entry. Tags and fused reporters are not part of them. Residues count along the entry.
UniProt Q9NYK1, 27-1049 limits assumed: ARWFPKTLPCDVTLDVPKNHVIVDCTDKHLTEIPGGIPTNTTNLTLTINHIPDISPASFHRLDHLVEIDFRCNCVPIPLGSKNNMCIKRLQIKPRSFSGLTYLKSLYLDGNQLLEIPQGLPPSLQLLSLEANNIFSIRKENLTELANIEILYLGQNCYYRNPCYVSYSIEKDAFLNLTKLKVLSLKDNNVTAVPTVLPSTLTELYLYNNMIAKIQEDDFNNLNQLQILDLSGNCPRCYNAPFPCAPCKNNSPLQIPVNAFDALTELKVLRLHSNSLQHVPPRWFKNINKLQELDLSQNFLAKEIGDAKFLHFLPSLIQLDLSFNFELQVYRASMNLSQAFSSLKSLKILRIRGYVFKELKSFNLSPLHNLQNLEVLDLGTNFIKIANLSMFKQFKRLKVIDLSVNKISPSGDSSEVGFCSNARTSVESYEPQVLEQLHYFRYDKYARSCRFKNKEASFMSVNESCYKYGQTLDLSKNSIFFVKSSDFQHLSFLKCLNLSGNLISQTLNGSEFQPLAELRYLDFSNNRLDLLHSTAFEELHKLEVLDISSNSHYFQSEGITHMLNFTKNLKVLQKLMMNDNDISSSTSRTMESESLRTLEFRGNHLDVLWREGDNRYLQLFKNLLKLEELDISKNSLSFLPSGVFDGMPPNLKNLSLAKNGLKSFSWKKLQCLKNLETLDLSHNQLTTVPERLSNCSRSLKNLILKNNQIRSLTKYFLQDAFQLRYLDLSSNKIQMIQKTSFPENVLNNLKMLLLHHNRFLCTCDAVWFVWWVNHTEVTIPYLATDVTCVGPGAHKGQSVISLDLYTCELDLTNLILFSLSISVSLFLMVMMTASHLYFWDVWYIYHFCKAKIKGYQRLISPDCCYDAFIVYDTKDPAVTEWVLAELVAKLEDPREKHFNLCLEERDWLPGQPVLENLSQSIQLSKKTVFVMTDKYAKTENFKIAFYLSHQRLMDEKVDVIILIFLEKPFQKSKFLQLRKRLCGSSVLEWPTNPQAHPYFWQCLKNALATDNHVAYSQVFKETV

Target: hTLR7 (Homo sapiens, UniProt Q9NYK1)
Assay: HEK-Blue hTLR7 reporter assay (NF-kB-induced SEAP, Quanti-Blue)
Assay type: cell-based
Details: HEK-Blue hTLR7 reporter cell line; data not shown

CCCCc1nc2cnc3ccccc3c2n1CCOCCNC(=O)OC(C)(C)C
EC50: 0.435 µM
